Test results published in patent US20250376498A1, “FUSION PROTEINS COMPRISING AN IMPROVED GLP-1 RECEPTOR AGONIST AND USES THEREOF” (Guangzhou Innogen Pharmaceutical Group Co., Ltd., priority 2022, published 2025).

Assay: K34 (+16 Da) hydroxylation level by Lys-C LC-MS/MS peptide mapping, UV280 and EIC
Format: physicochemical

Dulaglutide: DPP-IV protected GLP-1 analog fused with an IgG4/Fc fragment
EIC Ratio (%) of +16Da modified peptide 21-28 EFIAWLVK (K34 modification level) (EIC method): 4.4%
UV280 Ratio (%) of +16Da modified peptide 21-28 EFIAWLVK (K34 modification level) (UV280 method): 8.2%
